Results are given in words; binding and its absence hold for the method and conditions named. Binding seen in cells or lysates may run through a third protein. For some assays here: Binding calls can cover weak binding; strength is not graded here. Where a sequence is shown, tags or fusion partners need not be part of it.
Columns and labels:
[1] = molecular target: GST-CT1 (GST fusion of the PC1 C-terminus); assay: pull-down; GST-CT1 or GST-CT1-R4227X as bait, FLAG-ARHGAP35 detected by blot; performed as previously described (ref. 26)
[2] = molecular target: GST-CT1-R4227X (truncated PC1 C-terminus) (UniProt P98161); assay: as above

The chains behind the UniProt entries cited, without tags or fusion partners. Where a name states a change or a piece, a line headed by the entry shows the natural chain unless it says otherwise.
UniProt P98161: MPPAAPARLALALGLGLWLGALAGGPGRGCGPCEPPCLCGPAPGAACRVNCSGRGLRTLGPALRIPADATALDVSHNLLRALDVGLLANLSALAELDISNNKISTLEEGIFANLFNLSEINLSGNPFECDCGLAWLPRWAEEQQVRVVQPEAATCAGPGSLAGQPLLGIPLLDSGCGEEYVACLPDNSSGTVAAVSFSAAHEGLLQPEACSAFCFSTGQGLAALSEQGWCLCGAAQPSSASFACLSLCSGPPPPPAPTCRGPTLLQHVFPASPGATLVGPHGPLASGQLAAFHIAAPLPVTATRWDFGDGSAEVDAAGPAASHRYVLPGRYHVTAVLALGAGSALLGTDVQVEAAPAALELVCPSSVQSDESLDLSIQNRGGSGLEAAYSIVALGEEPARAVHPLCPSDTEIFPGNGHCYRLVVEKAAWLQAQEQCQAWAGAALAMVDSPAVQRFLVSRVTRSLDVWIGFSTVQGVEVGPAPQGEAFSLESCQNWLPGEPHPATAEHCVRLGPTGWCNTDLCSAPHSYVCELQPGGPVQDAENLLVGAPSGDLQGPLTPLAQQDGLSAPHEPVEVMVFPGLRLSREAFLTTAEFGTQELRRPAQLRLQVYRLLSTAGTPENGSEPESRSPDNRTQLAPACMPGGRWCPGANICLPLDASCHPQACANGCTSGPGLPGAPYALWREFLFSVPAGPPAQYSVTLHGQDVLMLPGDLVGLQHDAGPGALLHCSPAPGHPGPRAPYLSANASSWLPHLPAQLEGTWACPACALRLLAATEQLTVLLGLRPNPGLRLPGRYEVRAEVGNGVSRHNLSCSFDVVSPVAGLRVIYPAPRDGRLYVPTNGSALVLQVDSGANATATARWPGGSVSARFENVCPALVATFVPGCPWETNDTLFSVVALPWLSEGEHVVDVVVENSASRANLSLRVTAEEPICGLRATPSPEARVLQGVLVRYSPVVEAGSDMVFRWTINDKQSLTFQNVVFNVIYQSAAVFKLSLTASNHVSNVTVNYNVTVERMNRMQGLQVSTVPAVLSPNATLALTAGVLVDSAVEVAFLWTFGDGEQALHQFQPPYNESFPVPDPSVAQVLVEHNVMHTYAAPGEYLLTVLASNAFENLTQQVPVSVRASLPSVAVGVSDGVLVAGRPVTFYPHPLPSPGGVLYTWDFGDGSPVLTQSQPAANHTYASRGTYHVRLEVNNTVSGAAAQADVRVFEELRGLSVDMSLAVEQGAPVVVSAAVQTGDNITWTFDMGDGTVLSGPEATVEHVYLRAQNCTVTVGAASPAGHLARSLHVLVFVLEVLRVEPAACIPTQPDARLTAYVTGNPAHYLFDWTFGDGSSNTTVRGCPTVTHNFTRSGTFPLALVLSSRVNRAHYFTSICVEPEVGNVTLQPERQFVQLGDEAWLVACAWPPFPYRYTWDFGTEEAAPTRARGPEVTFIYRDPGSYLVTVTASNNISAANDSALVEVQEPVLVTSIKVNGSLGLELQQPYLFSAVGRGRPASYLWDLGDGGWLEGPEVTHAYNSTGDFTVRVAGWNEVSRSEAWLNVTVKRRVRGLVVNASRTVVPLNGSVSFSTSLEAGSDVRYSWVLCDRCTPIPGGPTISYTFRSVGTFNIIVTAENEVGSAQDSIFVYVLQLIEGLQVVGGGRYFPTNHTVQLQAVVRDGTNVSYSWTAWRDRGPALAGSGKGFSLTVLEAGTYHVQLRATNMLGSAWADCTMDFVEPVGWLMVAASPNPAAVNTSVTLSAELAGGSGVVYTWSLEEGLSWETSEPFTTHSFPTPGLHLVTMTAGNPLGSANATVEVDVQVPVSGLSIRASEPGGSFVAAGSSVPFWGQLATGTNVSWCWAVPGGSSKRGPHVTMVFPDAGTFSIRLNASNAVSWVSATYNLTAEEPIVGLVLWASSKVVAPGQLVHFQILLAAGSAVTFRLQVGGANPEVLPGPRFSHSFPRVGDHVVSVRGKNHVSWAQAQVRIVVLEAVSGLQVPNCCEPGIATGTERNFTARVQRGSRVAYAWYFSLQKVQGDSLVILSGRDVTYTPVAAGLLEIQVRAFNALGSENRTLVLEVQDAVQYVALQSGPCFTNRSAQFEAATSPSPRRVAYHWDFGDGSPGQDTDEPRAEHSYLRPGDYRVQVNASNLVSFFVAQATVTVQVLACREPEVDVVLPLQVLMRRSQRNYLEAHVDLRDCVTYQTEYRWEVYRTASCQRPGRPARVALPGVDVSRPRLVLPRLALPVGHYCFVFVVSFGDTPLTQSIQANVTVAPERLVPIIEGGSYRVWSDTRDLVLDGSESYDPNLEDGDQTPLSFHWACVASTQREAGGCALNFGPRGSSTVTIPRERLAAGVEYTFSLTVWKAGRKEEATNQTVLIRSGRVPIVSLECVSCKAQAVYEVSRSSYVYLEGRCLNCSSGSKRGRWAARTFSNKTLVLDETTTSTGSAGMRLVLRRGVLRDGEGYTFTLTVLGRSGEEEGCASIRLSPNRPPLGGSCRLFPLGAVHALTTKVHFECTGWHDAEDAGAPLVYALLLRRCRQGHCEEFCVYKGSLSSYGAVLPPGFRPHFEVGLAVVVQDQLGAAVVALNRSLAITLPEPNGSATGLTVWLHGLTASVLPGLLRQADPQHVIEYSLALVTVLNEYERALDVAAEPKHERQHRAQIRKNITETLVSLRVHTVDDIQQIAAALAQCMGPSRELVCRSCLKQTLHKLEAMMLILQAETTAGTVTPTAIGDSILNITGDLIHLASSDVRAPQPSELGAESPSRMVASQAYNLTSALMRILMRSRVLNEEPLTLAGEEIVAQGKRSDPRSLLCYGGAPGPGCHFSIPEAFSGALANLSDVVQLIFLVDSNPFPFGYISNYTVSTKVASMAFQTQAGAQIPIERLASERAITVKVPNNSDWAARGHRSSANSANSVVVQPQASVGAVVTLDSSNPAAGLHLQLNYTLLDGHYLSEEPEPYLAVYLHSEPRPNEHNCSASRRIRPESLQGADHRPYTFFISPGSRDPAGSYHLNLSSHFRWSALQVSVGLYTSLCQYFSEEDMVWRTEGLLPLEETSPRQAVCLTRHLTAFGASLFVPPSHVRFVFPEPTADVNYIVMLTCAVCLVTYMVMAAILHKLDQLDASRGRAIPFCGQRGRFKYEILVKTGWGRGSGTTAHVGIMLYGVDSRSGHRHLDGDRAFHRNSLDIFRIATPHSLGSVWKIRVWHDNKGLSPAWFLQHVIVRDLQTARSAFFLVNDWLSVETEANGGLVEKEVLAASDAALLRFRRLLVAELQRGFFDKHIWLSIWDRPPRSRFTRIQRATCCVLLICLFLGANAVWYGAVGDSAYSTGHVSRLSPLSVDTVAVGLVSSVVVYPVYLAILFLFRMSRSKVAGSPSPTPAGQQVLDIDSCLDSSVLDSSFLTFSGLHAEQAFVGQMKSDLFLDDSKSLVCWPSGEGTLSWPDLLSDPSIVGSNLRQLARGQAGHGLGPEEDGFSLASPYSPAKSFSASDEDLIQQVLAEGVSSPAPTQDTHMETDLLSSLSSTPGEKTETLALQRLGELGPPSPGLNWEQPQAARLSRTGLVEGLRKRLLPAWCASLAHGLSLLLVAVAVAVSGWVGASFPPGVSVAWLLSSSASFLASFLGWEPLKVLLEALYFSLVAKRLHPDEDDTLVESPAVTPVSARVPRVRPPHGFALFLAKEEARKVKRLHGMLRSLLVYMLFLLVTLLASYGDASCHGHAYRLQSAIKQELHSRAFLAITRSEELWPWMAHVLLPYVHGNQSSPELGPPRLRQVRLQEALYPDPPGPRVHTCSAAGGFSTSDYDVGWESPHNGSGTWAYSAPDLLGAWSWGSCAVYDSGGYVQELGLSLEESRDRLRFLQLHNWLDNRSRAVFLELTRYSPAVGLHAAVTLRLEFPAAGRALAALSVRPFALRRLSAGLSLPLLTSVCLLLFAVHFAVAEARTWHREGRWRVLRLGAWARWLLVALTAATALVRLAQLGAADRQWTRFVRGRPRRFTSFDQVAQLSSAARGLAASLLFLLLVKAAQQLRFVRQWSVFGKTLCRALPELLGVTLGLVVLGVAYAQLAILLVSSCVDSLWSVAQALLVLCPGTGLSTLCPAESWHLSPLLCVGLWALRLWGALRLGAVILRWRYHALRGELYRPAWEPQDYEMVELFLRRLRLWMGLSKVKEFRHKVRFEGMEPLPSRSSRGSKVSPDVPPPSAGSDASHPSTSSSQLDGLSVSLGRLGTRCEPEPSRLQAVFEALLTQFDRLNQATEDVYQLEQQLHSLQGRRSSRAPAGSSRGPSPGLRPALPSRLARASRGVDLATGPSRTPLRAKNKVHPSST

B1: full-length FLAG-ARHGAP35 (protein, UniProt Q9NRY4 1-1499)
chain: MMMARKQDVRIPTYNISVVGLSGTEKEKGQCGIGKSCLCNRFVRPSADEFHLDHTSVLSTSDFGGRVVNNDHFLYWGEVSRSLEDCVECKMHIVEQTEFIDDQTFQPHRSTALQPYIKRAAATKLASAEKLMYFCTDQLGLEQDFEQKQMPDGKLLVDGFLLGIDVSRGMNRNFDDQLKFVSNLYNQLAKTKKPIVVVLTKCDEGVERYIRDAHTFALSKKNLQVVETSARSNVNVDLAFSTLVQLIDKSRGKTKIIPYFEALKQQSQQIATAKDKYEWLVSRIVKNHNENWLSVSRKMQASPEYQDYVYLEGTQKAKKLFLQHIHRLKHEHIERRRKLYLAALPLAFEALIPNLDEIDHLSCIKAKKLLETKPEFLKWFVVLEETPWDATSHIDNMENERIPFDLMDTVPAEQLYEAHLEKLRNERKRVEMRRAFKENLETSPFITPGKPWEEARSFIMNEDFYQWLEESVYMDIYGKHQKQIIDKAKEEFQELLLEYSELFYELELDAKPSKEKMGVIQDVLGEEQRFKALQKLQAERDALILKHIHFVYHPTKETCPSCPACVDAKIEHLISSRFIRPSDRNQKNSLSDPNIDRINLVILGKDGLARELANEIRALCTNDDKYVIDGKMYELSLRPIEGNVRLPVNSFQTPTFQPHGCLCLYNSKESLSYVVESIEKSRESTLGRRDNHLVHLPLTLILVNKRGDTSGETLHSLIQQGQQIASKLQCVFLDPASAGIGYGRNINEKQISQVLKGLLDSKRNLNLVSSTASIKDLADVDLRIVMCLMCGDPFSADDILFPVLQSQTCKSSHCGSNNSVLLELPIGLHKKRIELSVLSYHSSFSIRKSRLVHGYIVFYSAKRKASLAMLRAFLCEVQDIIPIQLVALTDGAVDVLDNDLSREQLTEGEEIAQEIDGRFTSIPCSQPQHKLEIFHPFFKDVVEKKNIIEATHMYDNAAEACSTTEEVFNSPRAGSPLCNSNLQDSEEDIEPSYSLFREDTSLPSLSKDHSKLSMELEGNDGLSFIMSNFESKLNNKVPPPVKPKPPVHFEITKGDLSYLDQGHRDGQRKSVSSSPWLPQDGFDPSDYAEPMDAVVKPRNEEENIYSVPHDSTQGKIITIRNINKAQSNGSGNGSDSEMDTSSLERGRKVSIVSKPVLYRTRCTRLGRFASYRTSFSVGSDDELGPIRKKEEDQASQGYKGDNAVIPYETDEDPRRRNILRSLRRNTKKPKPKPRPSITKATWESNYFGVPLTTVVTPEKPIPIFIERCIEYIEATGLSTEGIYRVSGNKSEMESLQRQFDQDHNLDLAEKDFTVNTVAGAMKSFFSELPDPLVPYNMQIDLVEAHKINDREQKLHALKEVLKKFPKENHEVFKYVISHLNKVSHNNKVNLMTSENLSICFWPTLMRPDFSTMDALTATRTYQTIIELFIQQCPFFFYNRPITEPPGARPSSPSAVASTVPFLTSTPVTSQPSPPQSPPPTPQSPMQPLLPSQLQAEHTL
In the case of B1, the binding [1] is reported as “binds” and the binding [2] is reported as “no binding”.
